Results: US8003357B2, “Acidophilic enzymes” (Helmholtz-Zentrum Fuer Infektionsforschung GmbH, priority 2005, dated 2011)

Experiment: Fe2+ content (ICP-MS) and Fe2+ dependence of activity, dialysis against EDTA
Assay type: biochemical
Conditions: for metal: protein, +EDTA: after dialysis against 1 mM EDTA containing buffer; for Fe content by ICP-MS: purified enzyme; for metal: protein, wild type: natural Fe2+ content, ± standard deviation, three analyses
Method: The UV-VIS absorption spectra of purified acidic enzymes are shown in FIG. 4, wherein the uninterrupted lines refer to Fe^2+ containing enzymes and the interrupted lines refer to enzymes after dialysis against EDTA containing buffer. The λ-max values found at ca. 572 nm correlate with the Fe^2+ content, i.e. disappear after incubation with EDTA or DTT for 24 h. ICP-MS analysis confirmed the presence of 0.82±0.10 mol Fe in EstFA, 0.34±0.08 mol Fe in αGluFA, […] and 0.63±0.09 mol Fe in LigFA.
In FIG. 5, relative activities of acidic enzymes with varying content of Fe^2+ are shown. For analysis, purified enzymes were incubated in 1 mM EDTA. At time intervals indicated, two aliquots were removed, one was used for hydrolysis of respective substrates, the other for ICP-MS analysis of Fe. For relative activities, activities before incubation with EDTA were used as 100% values.
When further investigating the dependence of the acidic enzymes according to the invention on Fe^2+, relative activity for EstFA, αGluFA and LigFA were investigated for their natural Fe^2+ content, e.g. wild-type, which was set to 100%, in comparison to the activity after dialysis against a 1 mM EDTA containing buffer.

Molecule	Metal ion required	optimum Fe^2+ concentration	metal: protein, +EDTA	Fe content by ICP-MS	metal: protein, wild type
LigFA: DNA ligase obtainable from Ferroplasma acidiphilum, 595 amino acids, Seq. ID No. 3, Fe2+ dependent (protein, listed as Ferroplasma acidiphilum, CDS (1)..(927) est FA, ID No. 3, Fe2+ dependent) MHLMNMVDPDFNSLIELSKSAGDMTKIEPAMLRNFLDESSLSSRGAPVEIKEIKDYKIKLDGRTLNARMYDDNNAKSAILYYHGGGFLFGNIETYDNYCRFLAKESGVKIISIEYRLAPEHKFPDAFNDAYDSFHYIAKKKKDFGIEGRIGVAGDSAGANLAAALCLKCRDGKTEMPAVQVLFYPSLAPDNFSRSFIEYSDNYVLTGKMIRYFGNMYSKNMQDLINPYFSPLVADDFSNLPPAIMVTNEYDPLRDPEETYVKKLREAGVRAVGIRGIGMIHGSATDFEVSDGARNIVKMVARIIPDYL	Fe^2+	10 mM	0.06 moles Fe^2+ per mole of enzyme	0.63±0.09 mol Fe	2.03 ± 0.09 moles Fe^2+ per mole of enzyme
EstFA: acidophilic, Fe2+ dependent esterase from Ferroplasma acidiphilum, 308 amino acids, Seq ID No. 6 (protein, listed as Ferroplasma acidiphilum, PEPTIDE (1)..(531) alpha Glu FA) INSLYILNHKVIIAVAVSAILIAMVFAGANIPYPGYNPTDHLISGKHPISNVSEVPKNFTLSGNVSNSNNNLPLSGTITVSNSTMSRTFNTSSNGSYNITLPQGNYSISSSIPGFQNYSSTINLDSNKTQNISTPPATTIGNGINQVPGSTNVSTLVPYLNNSIMSGGLNTDNITGTFDKNITIDLGKKLNNTQFVVLMKLDGAVYSYNWVTNGSGMAKLFLKYSGNYTMSAYTLYYNSSVIHYNTANNDTARFNMTERITFISSVILQSAVPLHDNSSVANSTLTVKGGVFSVPSLSVNSNLTGTYYKYEVPVGFYNFAYSNAHYVSKNFGVDVTGNSTVNKTIDPYLISINIRNNTGNTFNYTLGSTFYSGNGIHMATSGITTLLVFHDGKIVYDNTILLTSANPYYQLNLTISNKNLTFNGIETDSTNLSIVYSGNVTSNFYIASLEFENFSTSATNGMIIISGAASGSYPLDSGLYTYNMSQSLPTSAGNLTIKLVYDNDSKVSTDGRMTVEVYGYNISTLGNYITE	Fe^2+	4.5 mM	0.09 moles Fe^2+ per mole of enzyme	0.82±0.10 mol Fe	1.03 ± 0.10 moles Fe^2+ per mole of enzyme
αGluFA: acidic glucosidase from Ferroplasma acidiphilum, 531 amino acids, Seq ID No. 11 (protein, listed as Ferroplasma acidiphilum, CDS (1)..(1596) alpha glu FA, in Figure 11 designated sequence 5a) INSLYILNHKVIIAVAVSAILIAMVFAGANIPYPGYNPTDHLISGKHPISNVSEVPKNFTLSGNVSNSNNNLPLSGTITVSNSTMSRTFNTSSNGSYNITLPQGNYSISSSIPGFQNYSSTINLDSNKTQNISTPPATTIGNGINQVPGSTNVSTLVPYLNNSIMSGGLNTDNITGTFDKNITIDLGKKLNNTQFVVLMKLDGAVYSYNWVTNGSGMAKLFLKYSGNYTMSAYTLYYNSSVIHYNTANNDTARFNMTERITFISSVILQSAVPLHDNSSVANSTLTVKGGVFSVPSLSVNSNLTGTYYKYEVPVGFYNFAYSNAHYVSKNFGVDVTGNSTVNKTIDPYLISINIRNNTGNTFNYTLGSTFYSGNGIHMATSGITTLLVFHDGKIVYDNTILLTSANPYYQLNLTISNKNLTFNGIETDSTNLSIVYSGNVTSNFYIASLEFENFSTSATNGMIIISGAASGSYPLDSGLYTYNMSQSLPTSAGNLTIKLVYDNDSKVSTDGRMTVEVYGYNISTLGNYITE	Fe^2+		0.05 moles Fe^2+ per mole of enzyme	0.34±0.08 mol Fe	1.04 ± 0.08 moles Fe^2+ per mole of enzyme
